From paper PMC3549499
No constants are given. Whether binding was seen depends on the method and setting. Binding seen in cells or lysates may run through a third protein. Values belong to the molecule of their own block, whether it stands above or below them.

Protein sequences, listed by entry. Tags and fused reporters are not part of them.
UniProt Q80U72: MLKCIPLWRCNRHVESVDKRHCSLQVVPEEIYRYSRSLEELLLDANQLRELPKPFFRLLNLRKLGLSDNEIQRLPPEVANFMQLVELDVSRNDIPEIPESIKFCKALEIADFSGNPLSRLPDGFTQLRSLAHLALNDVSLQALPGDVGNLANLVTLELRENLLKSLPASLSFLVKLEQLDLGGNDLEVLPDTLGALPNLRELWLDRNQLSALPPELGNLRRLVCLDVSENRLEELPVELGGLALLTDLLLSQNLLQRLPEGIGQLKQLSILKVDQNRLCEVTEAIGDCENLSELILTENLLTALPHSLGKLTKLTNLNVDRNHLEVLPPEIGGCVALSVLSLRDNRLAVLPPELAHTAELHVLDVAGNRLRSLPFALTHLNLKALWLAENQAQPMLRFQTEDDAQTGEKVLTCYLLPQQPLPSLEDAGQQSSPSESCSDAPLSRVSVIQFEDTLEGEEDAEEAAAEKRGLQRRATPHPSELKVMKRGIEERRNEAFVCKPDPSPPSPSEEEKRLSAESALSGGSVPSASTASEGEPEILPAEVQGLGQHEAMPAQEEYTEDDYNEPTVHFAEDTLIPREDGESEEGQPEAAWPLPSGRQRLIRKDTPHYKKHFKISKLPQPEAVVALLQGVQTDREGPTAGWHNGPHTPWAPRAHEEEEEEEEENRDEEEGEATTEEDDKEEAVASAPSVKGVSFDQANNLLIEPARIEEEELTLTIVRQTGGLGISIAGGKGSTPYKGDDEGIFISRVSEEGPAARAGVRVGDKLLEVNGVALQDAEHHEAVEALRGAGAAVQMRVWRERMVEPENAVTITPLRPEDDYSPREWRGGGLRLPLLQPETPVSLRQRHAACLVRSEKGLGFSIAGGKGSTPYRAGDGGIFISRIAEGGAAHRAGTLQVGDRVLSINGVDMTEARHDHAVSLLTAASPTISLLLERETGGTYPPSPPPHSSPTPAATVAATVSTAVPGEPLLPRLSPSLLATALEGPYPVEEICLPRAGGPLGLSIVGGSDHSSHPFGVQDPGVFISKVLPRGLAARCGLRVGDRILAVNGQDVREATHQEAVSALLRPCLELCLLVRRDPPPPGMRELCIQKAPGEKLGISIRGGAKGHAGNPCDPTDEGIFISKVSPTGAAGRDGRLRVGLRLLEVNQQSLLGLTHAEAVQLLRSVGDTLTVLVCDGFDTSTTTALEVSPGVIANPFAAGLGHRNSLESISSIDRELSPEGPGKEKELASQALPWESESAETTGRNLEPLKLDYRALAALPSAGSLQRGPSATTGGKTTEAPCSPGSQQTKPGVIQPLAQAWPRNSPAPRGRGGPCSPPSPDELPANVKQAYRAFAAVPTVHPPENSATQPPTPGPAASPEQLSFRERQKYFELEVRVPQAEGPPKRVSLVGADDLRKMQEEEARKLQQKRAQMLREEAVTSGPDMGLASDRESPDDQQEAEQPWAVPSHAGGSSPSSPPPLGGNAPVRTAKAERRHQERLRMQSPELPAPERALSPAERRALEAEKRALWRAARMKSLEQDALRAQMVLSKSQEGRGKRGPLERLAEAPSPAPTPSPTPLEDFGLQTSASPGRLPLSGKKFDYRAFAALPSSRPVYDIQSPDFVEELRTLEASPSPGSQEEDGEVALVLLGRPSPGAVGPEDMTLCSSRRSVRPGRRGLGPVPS

How the values were obtained:
[1] = target: T1, ZO-2 (mouse (endogenous in embryonic lung)) (UniProt Q9Z0U1); experiment: co-IP; separate immunoprecipitations with antibodies to ZO-2 or to Scrib from E13.5/14.5 mouse lung lysates; no figure shown
T1 sequence: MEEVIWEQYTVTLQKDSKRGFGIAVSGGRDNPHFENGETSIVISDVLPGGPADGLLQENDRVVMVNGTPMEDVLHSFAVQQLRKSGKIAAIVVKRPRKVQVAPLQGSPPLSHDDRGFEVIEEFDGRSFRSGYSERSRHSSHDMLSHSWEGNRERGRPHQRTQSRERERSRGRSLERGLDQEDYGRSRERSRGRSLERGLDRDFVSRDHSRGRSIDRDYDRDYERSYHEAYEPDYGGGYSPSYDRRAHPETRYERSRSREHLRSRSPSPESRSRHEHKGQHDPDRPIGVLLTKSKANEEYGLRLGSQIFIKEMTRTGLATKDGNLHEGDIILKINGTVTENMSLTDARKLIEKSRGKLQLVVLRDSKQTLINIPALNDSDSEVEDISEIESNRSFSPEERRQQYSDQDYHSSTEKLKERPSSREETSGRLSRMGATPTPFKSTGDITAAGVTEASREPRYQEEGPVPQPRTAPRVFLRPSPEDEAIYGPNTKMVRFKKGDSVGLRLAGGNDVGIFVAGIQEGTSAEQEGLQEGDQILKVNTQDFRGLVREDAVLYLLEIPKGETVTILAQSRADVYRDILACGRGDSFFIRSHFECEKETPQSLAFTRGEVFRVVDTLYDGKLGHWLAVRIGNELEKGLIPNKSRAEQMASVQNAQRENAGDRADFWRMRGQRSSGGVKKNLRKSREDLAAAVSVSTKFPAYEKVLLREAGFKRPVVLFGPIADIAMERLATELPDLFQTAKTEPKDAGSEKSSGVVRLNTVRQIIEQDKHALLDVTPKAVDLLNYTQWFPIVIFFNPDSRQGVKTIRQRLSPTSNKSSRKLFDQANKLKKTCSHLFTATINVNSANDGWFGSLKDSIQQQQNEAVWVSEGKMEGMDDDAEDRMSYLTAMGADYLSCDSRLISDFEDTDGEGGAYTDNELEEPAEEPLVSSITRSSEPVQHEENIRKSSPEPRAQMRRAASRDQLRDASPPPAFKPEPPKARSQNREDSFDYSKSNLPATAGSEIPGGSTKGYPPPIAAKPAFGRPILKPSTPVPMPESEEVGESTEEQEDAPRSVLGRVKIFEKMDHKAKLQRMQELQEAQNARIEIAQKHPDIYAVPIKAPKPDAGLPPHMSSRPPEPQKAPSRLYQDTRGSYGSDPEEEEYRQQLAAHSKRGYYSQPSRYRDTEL

[2] = target: Scribble (mouse (endogenous in embryonic lung)) (UniProt Q80U72); experiment: as above

binding [1]: no binding
Molecule: Scribble (from UniProt Q80U72 1-1665)

binding [2]: no binding
B1: ZO-2 (protein, UniProt Q9Z0U1 1-1167)
chain: T1 sequence
